Where “and” joins values, the source holds several entries; their conditions need not be identical. Equal entries are not always repeated. The source gives many values for each of these; only a part stands here.
Tested on: oral mucositis induced by acute radiation (40 Gy, left buccal cheek pouch)
Experiment: Oral mucositis induced by acute radiation in hamsters, mucositis scoring (Example 2, SCI-02)
Format: in vivo, Syrian Golden Hamsters
Design: key: 0: Pouch completely healthy. No erythema or vasodilation.; 1: Light to severe erythema and vasodilation. No erosion of mucosa.; 2: Severe erythema and vasodilation. Erosion of superficial aspects of mucosa leaving denuded areas. Decreased stippling of mucosa.; 3: Formation of off-white ulcers in one or more places. Ulcers may have a yellow/gray due to pseudomembrane. Cumulative size of ulcers should equal about ¼ of the pouch. Severe erythema and vasodilation.; 4: Cumulative seize of ulcers should equal about ½ of the pouch. Loss of pliability. Severe erythema and vasodilation.; 5: Virtually all of pouch is ulcerated. Loss of pliability (pouch can only partially be extracted from mouth)
Settings: individual animals, two scores per animal
Description: The acute radiation model in hamsters, developed by the Principle Investigator, has proven to be an accurate, efficient and cost-effective technique to provide a preliminary evaluation of anti-mucositis compounds. The course of mucositis in this model is well defined and results in peak scores approximately 14-16 Days following radiation. The acute model has little systemic toxicity, resulting in few hamster deaths, thus permitting the use of smaller groups (N=7-8) for initial efficacy studies. It has also been used to study specific mechanistic elements in the pathogenesis of mucositis. Molecules that show efficacy in the acute radiation model may be further evaluated in the more complex models of fractionated radiation, chemotherapy, or concomitant therapy.
In this study, an acute radiation dose of 40 Gy on day 0 was administered. Clinically significant mucositis was observed on days 12 through 28.
Forty (40) Syrian Golden Hamsters were given an acute radiation dose of 40 Gy directed to their left buccal cheek pouch on day 0. Test material SCV-07 was given by sub-cutaneous injection at 100 μg/kg or 1 mg/kg once or twice daily. Dosing began one day before radiation (day −1) and continued until day 20. Mucositis was evaluated clinically starting on day 6, and continuing on alternate days until day 28.
The grade of mucositis was scored, beginning day 6, and for every second day thereafter, through and including day 28. The effect on mucositis of each drug treatment compared to placebo was assessed according to the following parameters:
On each evaluation day, the number of animals with a blinded mucositis score of ≧3 in each drug treatment group was compared to the control group. Differences were compared on a cumulative basis and statistical significance was determined by chi-square analysis. Efficacy, in this analysis, is defined by a significant reduction in the number of days that a group of animals had ulcerations (scores ≧3) when compared to the control group. This same test was also used to evaluate differences between different drug treatment groups.
For each evaluation day the scores of the control group were compared to those of the treated groups using non-parametric rank sum analysis. Treatment success was considered as a statistically significant lowering of scores in the treated group on 2 or more days from day 6 to day 28.
Forty Syrian Golden Hamsters were divided into five (5) groups of eight (8) animals each. All animals received a single dose of acute radiation of 40 Gy directed to their left buccal cheek pouch on day 0. This was accomplished by anesthetizing the animals and everting the left buccal pouch, while protecting the rest of the animals with a lead shield. Test materials were given by sub-cutaneous injection once daily as detailed in Table 5. Mucositis was evaluated clinically starting on Day 6, and continuing on alternate days until day 28.
Mucositis was induced using a standardized acute radiation protocol. A single dose of radiation (40 Gy/dose) was administered to all animals on day 0. Radiation was generated with a 160 kilovolt potential (15-ma) source at a focal distance of 30 cm, hardened with a 0.35 mm Cu filtration system. Irradiation targeted the left buccal pouch mucosa at a rate of 3.2 Gy/minute. Prior to irradiation, animals were anesthetized with an intraperitoneal injection of Ketamine (160 mg/kg) and Xylazine (8 mg/kg). The left buccal pouch was everted, fixed and isolated using a lead shield to protect all other parts of the hamster's body.
The mucositis score, weight change and survival were measured throughout the study as described above. For the evaluation of mucositis, the animals were anesthetized with an inhalation anesthetic, and the left pouch everted. Mucositis was scored visually by comparison to a validated photographic scale, ranging from 0 for normal, to 5 for severe ulceration (clinical scoring). In descriptive terms, this scale is defined as follows: […]

N[C@H](CCC(=O)N[C@@H](Cc1c[nH]c2ccccc12)C(=O)O)C(=O)O [SCV-07, γ-D-glutamyl-L-tryptophan]
Mucositis score (Group 2 (SCV-07 100 μg/kg once daily, days -1 to 20), day 12): 1
Mucositis score (Group 2 (SCV-07 100 μg/kg once daily, days -1 to 20), day 14): 1 and 3
Mucositis score (Group 2 (SCV-07 100 μg/kg once daily, days -1 to 20), day 16): 3
Mucositis score (Group 2 (SCV-07 100 μg/kg once daily, days -1 to 20), day 20): 1
Mucositis score (Group 3 (SCV-07 100 μg/kg twice daily, days -1 to 20), day 6): 0 (8×) and 1 (8×)
Mucositis score (Group 3 (SCV-07 100 μg/kg twice daily, days -1 to 20), day 8): 1 (14×) and 0 (2×)
Mucositis score (Group 3 (SCV-07 100 μg/kg twice daily, days -1 to 20), day 10): 2 (8×) and 1 (8×)
Mucositis score (Group 3 (SCV-07 100 μg/kg twice daily, days -1 to 20), day 12): 2 (15×) and 1
Mucositis score (Group 3 (SCV-07 100 μg/kg twice daily, days -1 to 20), day 14): 2 (8×) and 3 (8×)
Mucositis score (Group 3 (SCV-07 100 μg/kg twice daily, days -1 to 20), day 16): 3 (9×) and 1 and 2 (6×)
Mucositis score (Group 3 (SCV-07 100 μg/kg twice daily, days -1 to 20), day 18): 2 (14×) and 3 and 1
Mucositis score (Group 3 (SCV-07 100 μg/kg twice daily, days -1 to 20), day 20): 2 (14×) and 1 (2×)
Mucositis score (Group 3 (SCV-07 100 μg/kg twice daily, days -1 to 20), day 22): 1 (3×) and 2 (13×)
Mucositis score (Group 3 (SCV-07 100 μg/kg twice daily, days -1 to 20), day 24): 2 (15×) and 1
Mucositis score (Group 3 (SCV-07 100 μg/kg twice daily, days -1 to 20), day 26): 2 (14×) and 1 (2×)
Mucositis score (Group 3 (SCV-07 100 μg/kg twice daily, days -1 to 20), day 28): 1 (10×) and 2 (6×)
Mucositis score (Group 4 (SCV-07 1 mg/kg once daily, days -1 to 20), day 6, 1 mg/kg): 1 (10×) and 0 (6×)
Mucositis score (Group 4 (SCV-07 1 mg/kg once daily, days -1 to 20), day 8): 1
Mucositis score (Group 4 (SCV-07 1 mg/kg once daily, days -1 to 20), day 10, 1 mg/kg): 2 (8×) and 1 (8×)
Mucositis score (Group 4 (SCV-07 1 mg/kg once daily, days -1 to 20), day 12): 2
Mucositis score (Group 4 (SCV-07 1 mg/kg once daily, days -1 to 20), day 14, 1 mg/kg): 3 (14×) and 2 (2×)
Mucositis score (Group 4 (SCV-07 1 mg/kg once daily, days -1 to 20), day 16, 1 mg/kg): 3 (12×) and 2 (4×)
Mucositis score (Group 4 (SCV-07 1 mg/kg once daily, days -1 to 20), day 18, 1 mg/kg): 3 (10×) and 2 (6×)
Mucositis score (Group 4 (SCV-07 1 mg/kg once daily, days -1 to 20), day 20, 1 mg/kg): 3 (7×) and 2 (8×) and 1
Mucositis score (Group 4 (SCV-07 1 mg/kg once daily, days -1 to 20), day 22, 1 mg/kg): 3 (5×) and 2 (10×) and 1
Mucositis score (Group 4 (SCV-07 1 mg/kg once daily, days -1 to 20), day 24, 1 mg/kg): 3 (5×) and 2 (10×) and 1
Mucositis score (Group 4 (SCV-07 1 mg/kg once daily, days -1 to 20), day 26, 1 mg/kg): 3 and 2 (14×) and 1
Mucositis score (Group 4 (SCV-07 1 mg/kg once daily, days -1 to 20), day 28, 1 mg/kg): 3 and 1 (8×) and 2 (7×)
Mucositis score (Group 5 (SCV-07 1 mg/kg twice daily, days -1 to 20), day 6, 1 mg/kg): 1 (12×) and 0 (4×)
Mucositis score (Group 5 (SCV-07 1 mg/kg twice daily, days -1 to 20), day 8): 1
Mucositis score (Group 5 (SCV-07 1 mg/kg twice daily, days -1 to 20), day 10, 1 mg/kg): 2 (8×) and 1 (8×)
Mucositis score (Group 5 (SCV-07 1 mg/kg twice daily, days -1 to 20), day 12, 1 mg/kg): 2 (14×) and 3 (2×)
Mucositis score (Group 5 (SCV-07 1 mg/kg twice daily, days -1 to 20), day 14, 1 mg/kg): 2 (6×) and 3 (10×)
Mucositis score (Group 5 (SCV-07 1 mg/kg twice daily, days -1 to 20), day 16, 1 mg/kg): 2 (10×) and 3 (6×)
Mucositis score (Group 5 (SCV-07 1 mg/kg twice daily, days -1 to 20), day 18, 1 mg/kg): 2 (10×) and 3 (6×)
Mucositis score (Group 5 (SCV-07 1 mg/kg twice daily, days -1 to 20), day 20): 2
Mucositis score (Group 5 (SCV-07 1 mg/kg twice daily, days -1 to 20), day 22, 1 mg/kg): 2 (15×) and 1
Mucositis score (Group 5 (SCV-07 1 mg/kg twice daily, days -1 to 20), day 24): 2
Mucositis score (Group 5 (SCV-07 1 mg/kg twice daily, days -1 to 20), day 26): 2
Mucositis score (Group 5 (SCV-07 1 mg/kg twice daily, days -1 to 20), day 28, 1 mg/kg): 2 (7×) and 1 (9×)
